Results from paper PMC6616352.
These are yes or no findings as the source states them, for the method shown.

Amino acid sequences for entries named in this document (tags omitted). Residues count along the entry.
UniProt P01009, residues 25-418: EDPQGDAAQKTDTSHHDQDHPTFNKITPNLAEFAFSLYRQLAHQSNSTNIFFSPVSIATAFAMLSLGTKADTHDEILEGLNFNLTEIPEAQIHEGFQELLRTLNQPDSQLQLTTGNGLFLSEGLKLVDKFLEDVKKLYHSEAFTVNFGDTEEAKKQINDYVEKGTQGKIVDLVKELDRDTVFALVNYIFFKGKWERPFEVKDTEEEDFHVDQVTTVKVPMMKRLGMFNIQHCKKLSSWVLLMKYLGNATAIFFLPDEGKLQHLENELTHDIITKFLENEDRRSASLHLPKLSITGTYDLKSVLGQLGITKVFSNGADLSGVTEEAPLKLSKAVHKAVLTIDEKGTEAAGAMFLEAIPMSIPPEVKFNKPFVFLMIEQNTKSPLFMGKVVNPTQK

Biological target: T1, pro-neutrophil elastase, inactive zymogen (mouse) (mouse (endogenous in C57BL/6J lung tissue)) (UniProt Q3UP87)
T1 sequence: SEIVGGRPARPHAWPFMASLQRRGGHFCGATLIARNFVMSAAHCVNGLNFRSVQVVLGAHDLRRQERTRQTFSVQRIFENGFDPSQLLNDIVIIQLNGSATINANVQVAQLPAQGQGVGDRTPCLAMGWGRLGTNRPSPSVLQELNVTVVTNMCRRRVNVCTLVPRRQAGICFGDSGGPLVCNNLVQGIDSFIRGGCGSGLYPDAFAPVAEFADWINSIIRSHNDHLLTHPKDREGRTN
Assay: covalent serpin-protease complex detected by SDS-PAGE and Western blot; whole lung tissue lysates of vehicle- or ICatC-treated mice, excess of AAT; 12% SDS-PAGE, blot with an AAT antibody together with a polyclonal anti-mouse PR3 antibody; irreversible complex expected as a 77 kDa band

binding: no binding
Substance: alpha-1-antitrypsin (from UniProt P01009 25-418)
